# Results of single-concentration screens

By UniProt entry, the sequences of proteins in these tests, tags left out. Residues count along the entry.
UniProt Q4DA54, 1-478: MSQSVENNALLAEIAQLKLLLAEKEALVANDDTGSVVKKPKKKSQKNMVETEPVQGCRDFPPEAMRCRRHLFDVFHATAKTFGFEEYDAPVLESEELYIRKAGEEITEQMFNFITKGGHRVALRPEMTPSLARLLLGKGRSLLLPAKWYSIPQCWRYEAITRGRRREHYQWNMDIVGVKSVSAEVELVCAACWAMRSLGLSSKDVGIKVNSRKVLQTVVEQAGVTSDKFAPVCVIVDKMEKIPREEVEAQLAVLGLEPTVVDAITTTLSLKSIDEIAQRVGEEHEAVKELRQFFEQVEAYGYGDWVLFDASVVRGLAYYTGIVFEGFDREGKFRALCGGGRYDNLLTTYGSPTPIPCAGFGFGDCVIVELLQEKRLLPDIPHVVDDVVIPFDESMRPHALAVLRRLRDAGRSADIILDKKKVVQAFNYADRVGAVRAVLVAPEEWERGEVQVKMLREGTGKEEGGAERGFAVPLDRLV
UniProt Q8IDJ8, 1-583: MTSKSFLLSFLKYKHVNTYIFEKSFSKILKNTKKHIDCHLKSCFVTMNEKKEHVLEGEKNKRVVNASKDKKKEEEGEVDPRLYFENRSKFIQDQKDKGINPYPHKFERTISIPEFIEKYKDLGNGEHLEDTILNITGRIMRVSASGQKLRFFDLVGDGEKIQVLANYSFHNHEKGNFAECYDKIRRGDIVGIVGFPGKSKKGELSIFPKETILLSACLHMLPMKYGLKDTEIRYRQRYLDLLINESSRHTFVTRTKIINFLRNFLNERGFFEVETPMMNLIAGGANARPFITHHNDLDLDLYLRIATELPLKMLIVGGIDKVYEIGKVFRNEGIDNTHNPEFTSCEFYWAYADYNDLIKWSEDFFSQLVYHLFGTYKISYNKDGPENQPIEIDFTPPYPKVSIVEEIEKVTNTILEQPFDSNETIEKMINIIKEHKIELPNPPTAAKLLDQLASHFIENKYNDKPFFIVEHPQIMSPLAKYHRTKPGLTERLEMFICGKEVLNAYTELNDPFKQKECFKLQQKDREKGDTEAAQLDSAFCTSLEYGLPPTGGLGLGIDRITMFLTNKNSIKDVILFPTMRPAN

A: 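Enzyme assay of histidyl-tRNA synthetase; the read-out is not stated. Target: Histidine-tRNA ligase, Trypanosoma cruzi CL Brener (UniProt Q4DA54). Compounds at 30 µM. The record gives no direction; compounds that gave an IC50 in retests scored well above the rest, so higher reads as stronger inhibition. About 69,000 compounds were tested under these conditions; 0.045% (about 31) showed 50% or more at least once.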
B: 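Lysine-tRNA ligase, Plasmodium falciparum 3D7 (UniProt Q8IDJ8). Enzyme assay of the cytosolic lysyl-tRNA synthetase in 384-well plates, read by luminescence. Concentration: 30 µM. Higher reads as stronger inhibition, judged from the few compounds that gave an IC50. Size under these conditions: about 69,000 compounds, about 49 of them at 50% or above in at least one test.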

Results are given as percent effect.
How 0% and 100% were set is not recorded. Most values in the screen are low, and negative values occur.
Compounds were drawn at random from those tested, without regard to their results.

Result for O=C(CSc1ccccc1)N1CCC(N2CCCCC2=O)CC1 was A: 7.407%; B: 0.5128%.
Result for CCn1nc2c(cc1=O)CN(CC(=O)Nc1nncs1)CC2 was A: -12.57%; B: -1.148%.
Result for Cc1ccc(C(=O)N2C[C@H]3CCC[C@@]3(COCC3CCOCC3)C2)o1 was A: 14.29%; B: 1.841%.
Result for Cc1ccc(CN2CC[C@@H]3OCCN(Cc4ccncc4)[C@H]3CC2)s1 was A: 10%; B: 4.123%.
Result for CS(=O)(=O)NC1CCN(C(=O)c2[nH]c3ccc(Cl)cc3c2Cl)CC1 was A: 3.448%; B: 5.062%.
Result for CN(CCC#N)C(=O)CN1CCCC1c1ccsc1 (stereo not drawn) was A: 4.981%; B: -3.637%.
Result for Cc1nn(C)c(C)c1C1CCCN1CCCc1nc2ccccc2o1 (stereo not drawn) was A: 3.008%; B: -1.036%.
Result for CCCn1nnnc1CN(c1ccc(C)cc1)C(C)C was A: 0.5618%; B: 1.886%.
Result for CC1CCN(S(=O)(=O)c2cccn(CC(=O)NC3CCCC3)c2=O)CC1 was A: 5.785%; B: 4.555%.
Result for O=C(NCCc1c[nH]cn1)c1ccc(S(=O)(=O)NC2CCCC2)cc1 was A: -0.4292%; B: 3.277%.
Result for CSc1ccsc1C(=O)NC(C)c1ccc2c(c1)CCC(=O)N2 (stereo not drawn) was A: 10.39%; B: 3.41%.
Result for O=C(NC1CCOC1)c1cccc(S(=O)(=O)NCCCc2ncc[nH]2)c1 (stereo not drawn) was A: 1.508%; B: -6.925%.
Result for CS(=O)(=O)NCC1CCCN(C(=O)Nc2ccccc2F)C1 (stereo not drawn) was A: 6.03%; B: 3.706%.
Result for CCOCCN1CCN(c2ccc(CN(C)C)cn2)CC1 was A: 7.328%; B: 6.835%.
Result for Cc1cnc(C)c(N2CCC(c3nccn3Cc3cscn3)CC2)n1 was A: 2.235%; B: 3.782%.
Result for NCc1n[nH]c(-c2ccc(Br)cc2)n1 was A: 6.736%; B: 2.685%.
Result for c1cn2c(n1)CN(Cc1ccsc1)CC(Cn1cncn1)C2 (stereo not drawn) was A: 7.563%; B: 5.43%.
Result for Cc1nc(CN(C)Cc2cc3c(cc2OC(F)F)OCO3)cs1 was A: 14.46%; B: 3.575%.
Result for CCn1ncc(C(=O)NCCc2nc(-c3ccncc3)n[nH]2)c1C was A: -0.7752%; B: 0.844%.
Result for CCOc1ncccc1NC(=O)N1CCc2ccccc2C1 was A: 2.682%; B: 12.93%.
Result for COCc1cccc(S(=O)(=O)N2CCSCC2)c1 was A: -6.087%; B: -4.15%.
Result for Cc1nc(CNC(C(=O)N2CCOCC2)C(C)C)no1 (stereo not drawn) was A: -80%; B: 3.413%.
Result for CCCC1CCCN(C(=O)CCn2cccn2)CC1 (stereo not drawn) was A: 6.122%; B: -0.7259%.
Result for C1CC(CN2CCc3c(nnn3CC3CC3)C2COCC2CC2)C1 (stereo not drawn) was A: 5.785%; B: -2.134%.
Result for Nc1nccc(C2CCN(CCO)C2)n1 (stereo not drawn) was A: 9.398%; B: 1.068%.
Result for O=c1[nH]c(CCN2CCCC(Cn3cncn3)C2)nc2ccccc12 (stereo not drawn) was A: 1.916%; B: -1.37%.
Result for O=C1CC(c2ccncc2)C2(CCN(CCc3ccccc3)CC2)N1 (stereo not drawn) was A: 4.132%; B: 0.01166%.
Result for CC(C)(O)CN1CCN(C(=O)c2ccn(-c3cccc(F)c3)n2)CC1 was A: 6.349%; B: 1.017%.
Result for CCN1CCCN(c2ccc(-n3ccc(C)n3)nn2)CC1 was A: 2.463%; B: 2.041%.
Result for CCc1noc(C(C)N2CCN(CC(C)C)CC2)n1 (stereo not drawn) was A: 5.085%; B: -1.241%.
Result for CCc1ncc2c(n1)CN(Cc1nc(-c3ccsc3)no1)CC2 was A: 3.03%; B: 3.088%.
Result for CCC/N=c1/c(NC(=O)NCCCOC)c(O)oc2ccccc12 was A: 3.509%; B: 2.738%.
Result for Cc1nn2c(N3CCC(C#N)CC3)cc(-c3ccccc3)nc2c1C was A: 11.22%; B: 0.8501%.
Result for CC(C)CN1CCCn2nc(CNC(=O)OCc3ccccc3)cc2C1 was A: 4.372%; B: 3.475%.
Result for COCCCN1CCC(NC(=O)C(C)C)CC1 was A: 4.959%; B: -7.969%.
Result for CC(C)NC(=O)N1CCC2(CC1)C(=O)NCCN2Cc1ccccc1 was A: 5.825%; B: 1.308%.
Result for CCN(C(=O)CCOC)C(c1ccc(Cl)cc1)c1ccccn1 (stereo not drawn) was A: 10.1%; B: 1.078%.
Result for CCN1CCOC(CNCc2ccccn2)C1 (stereo not drawn) was A: -3.03%; B: 5.41%.
Result for CCC(NC(=O)CCNC(=O)c1ccccc1F)c1cc(C)ccn1 (stereo not drawn) was A: 6.341%; B: 7.814%.

For reference, 3 entries once more:

{"smiles": "NCc1n[nH]c(-c2ccc(Br)cc2)n1", "A": 6.736, "B": 2.685}
{"smiles": "O=C1CC(c2ccncc2)C2(CCN(CCc3ccccc3)CC2)N1", "stereo": "stereo not drawn", "A": 4.132, "B": 0.01166}
{"smiles": "CC(C)CN1CCCn2nc(CNC(=O)OCc3ccccc3)cc2C1", "A": 4.372, "B": 3.475}

From ChEMBL document CHEMBL3988442, “University of Dundee, Small-Polar-MMV Screening Library” (2021).